Measurements as given in patent WO2022196697A1 (dated 2022).
Results are given in words; binding and its absence hold for the method and conditions named. Some binding calls cover weakened binding; strength is not graded here.

Key:
[1] = target: HER2 immunoprecipitated from the membrane fraction of HER2-type breast cancer cells (HER2 solution) (human) (UniProt P04626); experiment: lectin array (legend of Fig. 2)
[2] = target: HER2 immunoprecipitated from the membrane fraction of HER2-type breast cancer cells (HER2 solution) (human) (UniProt P04626); experiment: lectin array with immunoprecipitated HER2, with and without PNGase F

binding [1]: binds
binding [2]: binds
B1: UEA-I (protein, UniProt P22972 1-243, looked up)
chain: SDDLSFKFKNFSQNGKDLSFQGDASVIETGVLQLNKVGNNLPDETGGIARYIAPIHIWNCNTGEVASFITSFSFFMETSANPKAATDGLTFFLAPPDSPLRRAGGYFGLFEDTKDNDSSYQTVAVEFDTIGSPVNFDDPGFPHIGIDVNRVKSINAERWNKRYGLNNVANVEIIYEASSKTLTASLTYPSDQTSISVTSIVDLKEILPEWVSVGFSGGTYIGRQATHEVLNWYFTSNLINTNS
